Laboratory results: PubChem BioAssay AID720505 (Drosophila RNAi Screening Center, 2013)
Purpose: 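Genes needed for store-operated calcium entry in fly cells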 (primary screen). Cells: Drosophila S2R+ cells. Reagent: long dsRNA against Drosophila genes. Conditions: thapsigargin (2 µM) in calcium-free buffer to empty internal stores, then 2 mM calcium added back. Read-out: 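Fluo-4 signal in 384-well plates read on a FLIPR after thapsigargin (2 µM, calcium-free) store depletion and 2 mM calcium add-back; unnormalised mean endpoint per well; screen run twice, selected wells retested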. Reading the numbers: calcium signal and retest calcium signal: higher = more calcium entry after store depletion. Hit rule: 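Knock-downs counted as hits when calcium entry dropped relative to STIM1 positive and Rho1 negative controls present on each plate; roughly 1500 genes called, with reductions of differing size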. Meaning of the calls: active = called as lowering calcium entry; inactive = not called.
The screen tested about 20,000 reagents; this is a random part of those that have a named target and a result. Over the whole deposit, about 2,100 (10%) were called active. 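Raw plate signals without normalisation; calls rest on control-based scores that were not deposited; replicate 2 separates called from uncalled poorly.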 The numbers tell different reagents against one gene apart. Names joined by + are all predicted targets of the reagent. Not stated in the record: the amount of reagent, the time to read-out.

no.	target	dsRNA no.	calcium signal, replicate 1	calcium signal, replicate 2	retest calcium signal, replicate 1	retest calcium signal, replicate 2	call
1	Fuca	1	95	86.5			inactive
2	Nfs1	1	100	96.1			inactive
3	Sec24CD	1	40.4	124			active
4	CG2854	1	58.6	103			active
5	CG4984 + CG4975	1	168	165			inactive
6	CG4984 + CG4975	2	114	167			inactive
7	CG9890	1	112	167			inactive
8	CG12341	1	119	129			inactive
9	Cpr64Aa	1	71.7	82.9			inactive
10	Mst27D	1	76.7	81.2			active
11	CG13300	1	88.4	77.1			inactive
12	Vajk1	1	117	127			inactive
13	Gr10b	1	87.8	123			inactive
14	Mgat4a	1	71.5	106			inactive
15	Mgat4a	2	72.4	156			inactive
16	spz	1	115	187			inactive

Only “calcium signal, replicate 1” (5 entries from above):
CG4984 + CG4975 #2: 114
CG9890: 112
CG12341: 119
Cpr64Aa: 71.7
Mst27D: 76.7

Next entries follow.
no.	target	dsRNA no.	calcium signal, replicate 1	calcium signal, replicate 2	retest calcium signal, replicate 1	retest calcium signal, replicate 2	call
17	CG2924	1	142	158			inactive
18	CG10650	1	100	182			inactive
19	D2hgdh	1	119	152			inactive
20	ACXD	1	64.9	106			inactive
21	Sec61beta	1	96.6	201	110	97.9	inactive
22	Sec61beta	2	175	138			inactive
23	CG33170	1	90.2	111			inactive
24	CG33170	2	66.4	213			inactive
25	POLDIP2	1	98.7	99.9			inactive
26	CG15742	1	147	131			inactive
27	CG14270	1	123	95.3			inactive
28	CG14245	1	117	123			inactive
29	Tom7	1	63.8	83			active
30	Tom7	2	112	130			inactive
31	Fpgs1	1	75.1	111			inactive
32	CG12289	1	124	96.2			inactive
33	CG15602	1	110	131			inactive
34	DNAlig1	1	129	99			inactive
